Test results published in PMC2728203.

Target: ΔN-Nab2, DBD fusion for two-hybrid (S. cerevisiae)
Assay: two-hybrid; EGY48 reporter strain, Nab2 variants as DBD fusions (pEG202), CT-Mlp1 or Gfd1 as AD fusions (pJG4-5), lacZ reporter (blue colour), 30 °C

binding: no binding
B1: Gfd1, AD fusion for two-hybrid (protein, UniProt Q04839 1-188)
chain: MPLESIWADAPDEEPIKKQKPSHKRSNNNKKNNNSRWSNESSSNNKKKDSVNKVKNNKGNHESKTKNKIKETLPREKKPPHSQGKISPVSESLAINPFSQKATEISPPPVSPSKMKTTKTQSKQDTASKMKLLKKKIEEQREILQKTHHKNQQQQVLMDFLNDEGSSNWVDDDEEELILQRLKTSLKI

These are yes or no findings as the source states them, for the method shown. Where a sequence is shown, tags or fusion partners need not be part of it.
